# Test results reported in the supplement of paper PMC12067093, “Discovery and optimisation of a covalent ligand for TRIM25 and its application to targeted protein ubiquitination” (Chemical Science, 2025).
# Amino acid sequences for entries named in this document (tags omitted). A change or cut given only in a name is not applied to a line headed by its entry.
# UniProt Q96T51: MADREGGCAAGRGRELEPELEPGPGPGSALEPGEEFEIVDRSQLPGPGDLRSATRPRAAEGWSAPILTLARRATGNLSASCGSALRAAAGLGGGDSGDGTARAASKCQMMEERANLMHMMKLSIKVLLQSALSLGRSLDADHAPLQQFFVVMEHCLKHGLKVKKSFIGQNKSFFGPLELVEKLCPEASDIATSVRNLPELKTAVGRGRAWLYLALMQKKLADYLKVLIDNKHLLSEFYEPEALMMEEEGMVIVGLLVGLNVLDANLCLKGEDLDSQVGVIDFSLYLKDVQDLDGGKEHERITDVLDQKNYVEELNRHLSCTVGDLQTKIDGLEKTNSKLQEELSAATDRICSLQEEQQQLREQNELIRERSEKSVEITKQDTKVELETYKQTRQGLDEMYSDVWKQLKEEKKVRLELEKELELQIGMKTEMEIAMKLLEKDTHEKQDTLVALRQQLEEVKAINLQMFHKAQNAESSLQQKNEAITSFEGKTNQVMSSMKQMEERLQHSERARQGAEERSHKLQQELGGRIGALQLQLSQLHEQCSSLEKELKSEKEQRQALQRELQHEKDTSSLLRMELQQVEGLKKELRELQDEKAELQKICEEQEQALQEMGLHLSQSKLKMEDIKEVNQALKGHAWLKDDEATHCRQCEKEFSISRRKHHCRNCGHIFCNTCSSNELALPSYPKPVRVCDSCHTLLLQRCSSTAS
# UniProt P31350, whole entry, looked up: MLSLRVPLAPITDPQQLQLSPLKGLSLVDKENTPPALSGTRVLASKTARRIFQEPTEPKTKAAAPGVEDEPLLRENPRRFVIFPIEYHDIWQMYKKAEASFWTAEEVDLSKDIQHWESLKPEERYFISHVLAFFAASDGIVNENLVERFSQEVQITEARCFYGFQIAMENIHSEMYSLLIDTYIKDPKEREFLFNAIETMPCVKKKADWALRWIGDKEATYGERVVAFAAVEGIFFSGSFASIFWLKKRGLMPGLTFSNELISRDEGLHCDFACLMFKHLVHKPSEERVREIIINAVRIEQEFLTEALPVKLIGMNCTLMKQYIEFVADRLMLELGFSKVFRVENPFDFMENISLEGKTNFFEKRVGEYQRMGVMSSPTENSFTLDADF
# UniProt Q8N122, whole entry, looked up: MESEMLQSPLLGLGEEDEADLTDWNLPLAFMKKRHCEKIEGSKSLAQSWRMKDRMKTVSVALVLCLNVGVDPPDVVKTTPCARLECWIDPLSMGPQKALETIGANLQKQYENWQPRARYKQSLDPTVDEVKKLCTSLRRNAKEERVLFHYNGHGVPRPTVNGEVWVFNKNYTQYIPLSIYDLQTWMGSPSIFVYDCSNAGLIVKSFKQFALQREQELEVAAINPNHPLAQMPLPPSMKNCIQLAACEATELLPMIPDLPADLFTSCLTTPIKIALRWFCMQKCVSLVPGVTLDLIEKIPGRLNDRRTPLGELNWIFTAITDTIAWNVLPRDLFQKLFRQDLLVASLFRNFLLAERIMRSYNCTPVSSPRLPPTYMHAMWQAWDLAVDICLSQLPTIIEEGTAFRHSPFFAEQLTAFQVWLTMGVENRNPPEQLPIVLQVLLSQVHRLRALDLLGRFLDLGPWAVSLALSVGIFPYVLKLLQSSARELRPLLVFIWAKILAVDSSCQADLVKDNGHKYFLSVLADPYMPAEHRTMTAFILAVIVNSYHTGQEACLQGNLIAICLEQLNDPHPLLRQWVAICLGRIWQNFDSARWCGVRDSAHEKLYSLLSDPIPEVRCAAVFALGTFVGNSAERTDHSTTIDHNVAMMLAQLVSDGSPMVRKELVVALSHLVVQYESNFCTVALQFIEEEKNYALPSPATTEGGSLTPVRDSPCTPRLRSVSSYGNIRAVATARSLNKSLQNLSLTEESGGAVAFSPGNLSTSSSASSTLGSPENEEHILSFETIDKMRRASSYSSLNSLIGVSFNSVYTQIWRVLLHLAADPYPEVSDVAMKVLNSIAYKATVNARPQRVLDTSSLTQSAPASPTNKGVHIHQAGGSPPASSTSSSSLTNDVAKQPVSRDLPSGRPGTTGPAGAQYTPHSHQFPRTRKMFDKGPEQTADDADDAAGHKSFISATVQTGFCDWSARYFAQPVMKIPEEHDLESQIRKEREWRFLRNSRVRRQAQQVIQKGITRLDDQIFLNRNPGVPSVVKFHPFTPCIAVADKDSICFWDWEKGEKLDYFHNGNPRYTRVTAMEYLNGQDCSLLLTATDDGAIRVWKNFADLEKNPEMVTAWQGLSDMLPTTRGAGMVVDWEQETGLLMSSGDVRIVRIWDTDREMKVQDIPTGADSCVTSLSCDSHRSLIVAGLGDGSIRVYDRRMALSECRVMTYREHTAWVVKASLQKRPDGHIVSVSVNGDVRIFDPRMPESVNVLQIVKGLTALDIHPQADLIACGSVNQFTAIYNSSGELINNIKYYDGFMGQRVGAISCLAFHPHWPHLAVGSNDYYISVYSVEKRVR
# UniProt P23921: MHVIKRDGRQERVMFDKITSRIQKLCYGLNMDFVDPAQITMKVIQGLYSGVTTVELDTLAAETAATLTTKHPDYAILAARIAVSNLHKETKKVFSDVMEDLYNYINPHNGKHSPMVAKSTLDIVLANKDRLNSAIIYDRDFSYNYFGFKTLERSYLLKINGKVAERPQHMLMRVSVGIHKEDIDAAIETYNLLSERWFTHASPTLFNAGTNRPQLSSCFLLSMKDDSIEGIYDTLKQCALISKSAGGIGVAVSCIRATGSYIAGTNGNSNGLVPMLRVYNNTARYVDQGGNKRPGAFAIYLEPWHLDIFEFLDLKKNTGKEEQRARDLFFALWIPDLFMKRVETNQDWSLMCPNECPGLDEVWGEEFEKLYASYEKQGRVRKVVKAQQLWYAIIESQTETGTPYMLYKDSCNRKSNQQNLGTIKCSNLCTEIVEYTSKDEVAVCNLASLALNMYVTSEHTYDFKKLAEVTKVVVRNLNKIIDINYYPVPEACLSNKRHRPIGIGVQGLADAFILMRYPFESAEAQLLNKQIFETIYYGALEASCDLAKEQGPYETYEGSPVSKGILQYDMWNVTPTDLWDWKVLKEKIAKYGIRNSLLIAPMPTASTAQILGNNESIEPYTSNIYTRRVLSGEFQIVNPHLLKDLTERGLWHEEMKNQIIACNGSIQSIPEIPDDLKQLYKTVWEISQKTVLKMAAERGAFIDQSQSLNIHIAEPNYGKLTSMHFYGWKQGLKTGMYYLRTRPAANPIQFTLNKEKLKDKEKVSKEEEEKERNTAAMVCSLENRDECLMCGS
# UniProt O43159: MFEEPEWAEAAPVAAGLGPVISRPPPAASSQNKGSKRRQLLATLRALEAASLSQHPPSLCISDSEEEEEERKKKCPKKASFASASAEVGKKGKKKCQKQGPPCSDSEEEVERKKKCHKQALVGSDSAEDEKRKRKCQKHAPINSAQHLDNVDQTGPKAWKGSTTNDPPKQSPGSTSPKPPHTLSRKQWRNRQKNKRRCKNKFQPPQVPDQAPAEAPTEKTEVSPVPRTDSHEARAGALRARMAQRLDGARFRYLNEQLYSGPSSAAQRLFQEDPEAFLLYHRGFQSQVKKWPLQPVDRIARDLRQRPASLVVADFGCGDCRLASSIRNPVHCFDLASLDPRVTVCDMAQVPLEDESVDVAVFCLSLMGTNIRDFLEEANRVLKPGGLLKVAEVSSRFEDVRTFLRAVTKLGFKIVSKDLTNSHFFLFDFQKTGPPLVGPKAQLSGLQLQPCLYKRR
# UniProt Q15418, whole entry, looked up: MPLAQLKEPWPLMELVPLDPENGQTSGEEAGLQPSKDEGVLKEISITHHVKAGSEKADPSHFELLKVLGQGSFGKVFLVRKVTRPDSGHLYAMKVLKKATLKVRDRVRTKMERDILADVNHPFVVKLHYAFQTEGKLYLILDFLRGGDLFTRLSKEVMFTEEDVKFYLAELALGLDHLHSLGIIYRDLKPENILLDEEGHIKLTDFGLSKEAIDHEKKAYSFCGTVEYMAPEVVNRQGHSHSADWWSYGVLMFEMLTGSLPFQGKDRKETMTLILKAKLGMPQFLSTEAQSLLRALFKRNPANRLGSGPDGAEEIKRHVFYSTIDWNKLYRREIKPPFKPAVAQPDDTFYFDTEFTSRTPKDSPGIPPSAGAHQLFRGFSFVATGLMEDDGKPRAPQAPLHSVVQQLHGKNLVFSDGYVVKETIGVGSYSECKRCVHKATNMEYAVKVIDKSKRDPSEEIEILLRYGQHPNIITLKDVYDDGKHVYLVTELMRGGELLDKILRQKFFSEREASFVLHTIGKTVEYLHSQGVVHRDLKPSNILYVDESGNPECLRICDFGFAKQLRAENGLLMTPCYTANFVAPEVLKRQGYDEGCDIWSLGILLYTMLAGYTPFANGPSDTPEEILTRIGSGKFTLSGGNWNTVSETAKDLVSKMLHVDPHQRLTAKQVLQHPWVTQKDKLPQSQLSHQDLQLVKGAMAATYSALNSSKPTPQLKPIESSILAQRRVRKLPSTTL
# UniProt Q9BY42: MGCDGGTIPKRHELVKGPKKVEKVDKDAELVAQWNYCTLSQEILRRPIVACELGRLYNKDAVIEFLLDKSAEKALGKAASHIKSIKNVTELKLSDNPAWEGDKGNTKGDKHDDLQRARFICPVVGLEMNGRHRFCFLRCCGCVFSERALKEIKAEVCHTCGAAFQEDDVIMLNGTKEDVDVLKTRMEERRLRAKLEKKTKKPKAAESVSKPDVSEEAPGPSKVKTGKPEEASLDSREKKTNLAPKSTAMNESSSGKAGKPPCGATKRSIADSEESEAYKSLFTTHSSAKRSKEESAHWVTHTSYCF
# UniProt Q9Y230, whole entry, looked up: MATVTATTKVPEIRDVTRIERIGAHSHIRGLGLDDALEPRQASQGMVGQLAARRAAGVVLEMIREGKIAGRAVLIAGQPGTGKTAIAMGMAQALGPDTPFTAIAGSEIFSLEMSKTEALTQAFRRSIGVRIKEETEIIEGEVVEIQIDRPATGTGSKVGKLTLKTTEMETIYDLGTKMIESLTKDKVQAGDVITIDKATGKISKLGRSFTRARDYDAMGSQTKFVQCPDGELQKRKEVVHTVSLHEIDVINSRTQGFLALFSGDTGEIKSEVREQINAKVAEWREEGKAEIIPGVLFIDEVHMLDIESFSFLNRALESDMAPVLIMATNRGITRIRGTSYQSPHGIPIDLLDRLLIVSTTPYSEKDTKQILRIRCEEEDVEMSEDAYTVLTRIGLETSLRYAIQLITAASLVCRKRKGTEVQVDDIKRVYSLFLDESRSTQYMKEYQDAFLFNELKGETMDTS
# UniProt P28702: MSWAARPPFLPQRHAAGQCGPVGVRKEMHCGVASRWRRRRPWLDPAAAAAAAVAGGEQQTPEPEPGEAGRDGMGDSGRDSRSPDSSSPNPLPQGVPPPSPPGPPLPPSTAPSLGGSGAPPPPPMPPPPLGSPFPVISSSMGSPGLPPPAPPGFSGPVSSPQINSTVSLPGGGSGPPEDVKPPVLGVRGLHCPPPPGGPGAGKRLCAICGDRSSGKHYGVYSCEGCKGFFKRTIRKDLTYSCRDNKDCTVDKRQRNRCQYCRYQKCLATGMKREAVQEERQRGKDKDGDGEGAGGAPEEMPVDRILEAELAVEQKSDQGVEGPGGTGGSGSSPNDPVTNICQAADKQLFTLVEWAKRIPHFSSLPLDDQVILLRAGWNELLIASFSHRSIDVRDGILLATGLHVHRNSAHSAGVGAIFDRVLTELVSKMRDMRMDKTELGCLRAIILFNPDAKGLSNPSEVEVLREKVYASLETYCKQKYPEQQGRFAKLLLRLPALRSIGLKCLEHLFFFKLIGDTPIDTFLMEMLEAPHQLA
# UniProt Q5VWQ0: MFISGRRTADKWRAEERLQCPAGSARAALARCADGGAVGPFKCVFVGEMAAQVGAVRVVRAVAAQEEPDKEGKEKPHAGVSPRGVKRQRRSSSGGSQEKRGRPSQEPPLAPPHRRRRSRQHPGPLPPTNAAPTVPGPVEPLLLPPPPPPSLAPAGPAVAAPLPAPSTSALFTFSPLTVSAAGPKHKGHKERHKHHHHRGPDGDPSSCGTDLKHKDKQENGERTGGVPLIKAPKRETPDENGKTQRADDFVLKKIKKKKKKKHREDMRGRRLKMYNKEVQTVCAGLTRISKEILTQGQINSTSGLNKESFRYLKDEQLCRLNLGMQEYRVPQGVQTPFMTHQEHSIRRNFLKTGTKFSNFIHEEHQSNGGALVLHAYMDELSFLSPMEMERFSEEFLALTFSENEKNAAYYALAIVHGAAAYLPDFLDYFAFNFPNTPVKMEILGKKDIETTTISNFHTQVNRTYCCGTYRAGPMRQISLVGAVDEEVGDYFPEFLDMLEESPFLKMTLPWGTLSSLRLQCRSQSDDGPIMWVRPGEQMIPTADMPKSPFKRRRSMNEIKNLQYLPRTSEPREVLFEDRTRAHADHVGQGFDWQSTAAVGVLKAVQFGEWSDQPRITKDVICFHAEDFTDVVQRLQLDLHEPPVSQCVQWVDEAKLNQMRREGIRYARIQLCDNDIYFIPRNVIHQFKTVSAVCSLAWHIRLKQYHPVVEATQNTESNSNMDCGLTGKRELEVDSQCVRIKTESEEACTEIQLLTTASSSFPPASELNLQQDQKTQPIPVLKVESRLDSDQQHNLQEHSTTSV
# The list shows a part of the results.
# Compound: CC1Cc2ccccc2N1C(=O)C1CCCN(C1)C(=O)CCl (mixture of isomers) [TRIM25 ligand 11 (diastereomer mixture)]
# Test: probe-labelled cysteine peptide fold change vs DMSO (competition) (log2 fold change); higher = less target engagement (more negative = stronger competition)
# Conditions: 10 µM; THP-1; incubation time: 4 h
# 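Further: competitive chemoproteomic profiling in live THP-1 cells with an iodoacetamide desthiobiotin (IA-DTB) probe, comparing probe-labelled peptide intensities in compound-treated cells against DMSO-treated controls.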
row,Target,probe-labelled cysteine peptide fold change
1,RPS2_P15880_188_CGSVLVR (UniProt P15880),-0.15
2,RUFY1_Q96T51_603_ICEEQEQALQEMGLHLSQSK (UniProt Q96T51),0.0221
3,RPS3_P23396_119_ACYGVLR (UniProt P23396),0.152
4,RRM2_P31350_202_EFLFNAIETMPCVK (UniProt P31350),0.16
5,RPS11_P62280_131_DVQIGDIVTVGECR (UniProt P62280),0.0856
6,RPTOR_Q8N122_1047_DSICFWDWEK (UniProt Q8N122),0.0173
7,RPS28_P62857_27_TGSQGQCTQVR (UniProt P62857),-0.262
8,RSBN1L_Q6PCB5_610_DVICFHAEDFLEVVQR (UniProt Q6PCB5),-0.0248
9,RPS12_P25398_50+56_RQAHLCVLASNCDEPMYVK (UniProt P25398),-0.431
10,RPS14_P62263_31_EKKEEQVISLGPQVAEGENVFGVCHIFASFNDTFVHVTDLSGK (UniProt P62263),-0.151
11,RRM1_P23921_779_NTAAMVCSLENR (UniProt P23921),0.35
12,RRP8_O43159_320_QRPASLVVADFGCGDCR (UniProt O43159),0.0522
13,RRM2_P31350_317_LIGMNCTLMK (UniProt P31350),0.18
14,RRM1_P23921_662_NQIIACNGSIQSIPEIPDDLK (UniProt P23921),0.216
15,RPS6KA1_Q15418_432_ETIGVGSYSECKR (UniProt Q15418),0.185
16,RUVBL1_Q9Y265_311_YIDQGIAELVPGVLFVDEVHMLDIECFTYLHR (UniProt Q9Y265),-0.184
17,S100A8_P05109_42_LLETECPQYIR (UniProt P05109),-0.0697
18,RPS16_P62249_25_TATAVAHCK (UniProt P62249),-0.0285
19,SAMD9_Q5K651_975+979_TEVIECGNYCGVR (UniProt Q5K651),0.388

row,Target,probe-labelled cysteine peptide fold change
1,RUFY1_Q96T51_81_ATGNLSASCGSALR (UniProt Q96T51),0.132
2,RRM1_P23921_492_IIDINYYPVPEACLSNK (UniProt P23921),0.171
3,RTFDC1_Q9BY42_37_DAELVAQWNYCTLSQEILR (UniProt Q9BY42),0.301
4,SAE1_Q9UBE0_342_GNGIVECLGPK (UniProt Q9UBE0),0.00974
5,RTFDC1_Q9BY42_51_RPIVACELGR (UniProt Q9BY42),-0.104
6,RPS6KB1_P23443_254_ESIHDGTVTHTFCGTIEYMAPEILMR (UniProt P23443),0.0349
7,RUFY1_Q96T51_184_LCPEASDIATSVR (UniProt Q96T51),0.0324
8,RTCB_Q9Y3I0_485_NVTDVVNTCHDAGISKK (UniProt Q9Y3I0),-0.0425
9,RUVBL2_Q9Y230_375_IRCEEEDVEMSEDAYTVLTR (UniProt Q9Y230),0.0335
10,RRM1_P23921_779+787_NTAAMVCSLENRDECLMCGS (UniProt P23921),-0.483
11,RPS11_P62280_116_NMSVHLSPCFR (UniProt P62280),0.0603
12,RXRB_P28702_30_EMHCGVASR (UniProt P28702),-0.0911
13,RSBN1_Q5VWQ0_207_GPDGDPSSCGTDLK (UniProt Q5VWQ0),-0.0689
14,RUVBL1_Q9Y265_206_CDTYATEFDLEAEEYVPLPK (UniProt Q9Y265),-0.0333
15,RPS12_P25398_106+108_VVGCSCVVVK (UniProt P25398),0.00215
16,RTTN_Q86VV8_2128_SSPLLPLLIFHNVCFSPANKPK (UniProt Q86VV8),-0.115
17,RPS2_P15880_222_KLLMMAGIDDCYTSAR (UniProt P15880),-0.59
18,S100A6_P06703_3_ACPLDQAIGLLVAIFHK (UniProt P06703),-0.394
19,RPS27A_P62979_121+126_RECPSDECGAGVFMASHFDR (UniProt P62979),-0.131
